According to patent US20090239929A1, “N-Pyrrolidin-3-YL-Amide Derivatives As Serotonin and Noradrenalin Re-Uptake Inhibitors” (priority 2004, published 2009):
Structures can show the parent of a compound that is named as a salt. Some entries share one result that the patent states for a list of compounds. At least one structure is not confirmed: it was looked up by name or label, or the drawing left a doubt.

These compounds were tested against human serotonin and noradrenaline transporters (SERT and NET) (assay: SPA binding, summary statement covering NET and/or SERT). Settings: bound holds for at least one of the two transporters; read-out: NRI Ki and/or SRI Ki.

SMILES	Ki
CCSc1ccccc1C(=O)N(CCC(F)(F)F)[C@H]1CCNC1 [2-(ethylthio)N-[(3S)-pyrrolidin-3-yl]-N-(3,3,3-difluoropropyl)benzamide]	< 200 nM
O=C(c1cccc(Cl)c1Cl)N(CCC(F)(F)F)[C@H]1CCNC1 [Example 5, 2,3-Dichloro-N-[(3S)-pyrrolidin-3-yl]-N-(3,3,3-trifluoropropyl)benzamide hydrochloride]	< 200 nM
O=C(c1ccccc1Oc1ccccc1)N(CCC(F)(F)F)[C@H]1CCNC1 [Example 6, 2-Phenoxy-N-[(3S)-pyrrolidin-3-yl]-N-(3,3,3-trifluoropropyl)benzamide hydrochloride]	< 200 nM
CC(F)(F)CN(C(=O)c1ccccc1Oc1ccccc1)[C@H]1CCNC1 [Example 7, N-(2,2-Difluoropropyl)-2-phenoxy-N-[(3S)-pyrrolidin-3-yl]benzamide hydrochloride]	< 200 nM
O=C(c1ccccc1Oc1ccccc1)N(CC(F)(F)F)[C@H]1CCNC1 [Example 8, 2-phenoxy-N-[(3S)-pyrrolidin-3-yl]-N-(2,2,2-trifluoroethyl)benzamide hydrochloride]	< 200 nM
O=C(c1ccccc1Oc1ccccc1)N(CC(F)F)[C@H]1CCNC1 [Example 9, N-(2,2-difluoroethyl)-2-phenoxy-N-[(3S)-pyrrolidin-3-yl]benzamide hydrochloride]	< 200 nM
O=C(c1cccc(Cl)c1Cl)N(C(C1CC1)C1CC1)[C@H]1CCNC1 [Example 10, 2,3-dichloro-N-(dicyclopropylmethyl)-N-[(3S)-pyrrolidin-3-yl]benzamide hydrochloride]	< 200 nM
COCCN(C(=O)c1ccccc1Oc1ccccc1)[C@H]1CCNC1 [Example 11, N-(2-methoxyethyl)-2-phenoxy-N-[(3S)-pyrrolidin-3-yl]benzamide hydrochloride]	< 200 nM
